Measured values from article PMC7485977.
No constants are given. Whether binding was seen depends on the method and setting. Binding seen in cells or lysates may run through a third protein. Binding calls can cover weak binding; strength is not graded here. Where a sequence is shown, tags or fusion partners need not be part of it.

What was measured:
[1] = target: T1, OsRPN10 fused to a YFP fragment (BiFC) (O. sativa spp. japonica) (UniProt O82143); assay: split reporter; BiFC: N- and C-terminal fragments of YFP fused to the two proteins, co-expressed in N. benthamiana leaves by agroinfiltration; confocal microscopy
T1 sequence: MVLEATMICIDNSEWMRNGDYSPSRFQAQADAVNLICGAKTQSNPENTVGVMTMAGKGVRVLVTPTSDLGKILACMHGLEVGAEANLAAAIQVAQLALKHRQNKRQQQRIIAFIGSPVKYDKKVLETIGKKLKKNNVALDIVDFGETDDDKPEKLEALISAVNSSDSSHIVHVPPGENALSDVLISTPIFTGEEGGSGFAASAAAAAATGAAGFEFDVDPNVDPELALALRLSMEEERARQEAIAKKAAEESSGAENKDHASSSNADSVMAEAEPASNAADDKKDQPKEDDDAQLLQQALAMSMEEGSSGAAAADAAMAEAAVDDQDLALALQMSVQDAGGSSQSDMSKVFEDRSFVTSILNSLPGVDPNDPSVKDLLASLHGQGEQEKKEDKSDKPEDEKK

OsRPN10-GFP (O. sativa) = target: T2, OsRPN10-GFP (O. sativa) (UniProt O82143); assay: co-IP; fusion proteins co-expressed 48 h in N. benthamiana leaves by agroinfiltration; total proteins in GTEN buffer (10% glycerol, 25 mM Tris-HCl pH 7.5, 1 mM EDTA, 150 mM NaCl) with 10 mM DTT, 0.5% nonidet P40; GFP-Trap M beads, 2 h; blots with anti-GFP and anti-Myc
T2 sequence: T1 sequence

| Substance | binding [1] | binding (OsRPN10-GFP (O. sativa)) |
| --- | --- | --- |
| OsUBL5.1 fused to a YFP fragment (BiFC) (O. sativa spp. japonica) | binds | – |
| OsUBL5.1-Myc (O. sativa) | – | binds |
